Measurements published in PubChem BioAssay AID2685 (National Center for Advancing Translational Sciences (NCATS), 2010).
Hit rate of the full screen: of about 320,000 compounds, about 2,100 (0.66%) were called active. Inconclusive means that the source gave no clear call. Such entries were picked first, then a sample of the others. Calls come from the whole dose curve; as a rule, active = well fitted inhibition curve with a large enough effect in the signal ratio, with a control signal flat (not every such curve was filed as active); inconclusive = small, poorly fitted or top-dose-only effect, or effect the other way, or a change in a side signal; inactive = flat fitted curve, though single readings scatter; the % refers to the signal ratio. Potencies of inconclusive entries are doubtful fits and often do not repeat.

Assay: qHTS Assay for Lipid Storage Modulators in Drosophila S3 Cells
Conditions: BODIPY lipid droplet fluorescence, 18-24 h, cells fed with added oleic acid; lipid storage change, negative = inhibition: at 46.1 µM (top of the series) unless noted
Method in brief: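 Laser-scanning cytometry quantifies lipid droplet accumulation (500–530 nm total intensity; droplet/cell object ratio) in oleic acid-fed (400 uM added) Drosophila S3 cells treated with a concentration series. 20 uM Triacsin C defined 100% inhibition.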
% is set by controls: 0 for no effect and ±100 for the full control effect; potency is the fitted concentration of half-maximal effect.

Lipid storage change, negative = inhibition, inconclusive:
NS(=O)(=O)c1ccc(NC(=O)CSc2ccc3ccccc3n2)cc1 -5.54%
N#Cc1ccc(NC(=S)NC(=O)CCc2ccc(S(=O)(=O)N3CCOCC3)cc2)cc1 5.91%
O=Cc1c[nH]c2ccc(S(=O)(=O)N3CCOCC3)cc12 -2.65%
O=C(Nc1ccc(F)c([N+](=O)[O-])c1)C1CC(=O)N(Cc2ccccc2)C1 (centres undefined) -18.9%
O=C(CNC(=O)C1CC(=O)N(c2cccc3ccccc23)C1)Nc1ccccc1Br (centres undefined) -13.6%
O=C(Nc1nc2ccccc2[nH]1)C1CC1 49.2%
COC(=O)c1ccc(C2=NOC(C)(c3sc(-c4ccccc4)nc3C)C2)cc1 (centres undefined) 21.5%
COc1ccc(S(=O)(=O)N2CCNCC2)cc1 -31%
COc1cc(-c2nc(N)n[nH]2)cc(OC)c1OC 39.2%
Cc1ccc(-c2ccc(/C=N/NC(=O)CN3CCOCC3)o2)cc1[N+](=O)[O-] 12.7%
Cc1ccc(S(=O)(=O)N2Cc3ccccc3CC2C(=O)Nc2ccc3c(c2)OCO3)cc1 (centres undefined) 21.5%
O=C(NCCO)C(F)(F)C(F)(F)C(F)(F)OC(F)(C(=O)NCCO)C(F)(F)F (centres undefined) 40.6%
COc1ccc(S(=O)(=O)N2CCOCC2)cc1C(=O)Nc1ccon1 -22.8%
COCCn1c(C)cc(C(=O)COC(=O)c2ccc([N+](=O)[O-])o2)c1C 5.27%
COC(=O)C(NC(C)=O)(Nc1nc2c(s1)CCCC2)C(F)(F)F (centres undefined) -101%
Clc1cccc(-c2ccnc3nc(-n4cccc4)nn23)c1 13.1%
Cc1cc(C)cc(C(=O)N2CC(=O)Nc3ccccc32)c1 196%
Cc1cccc(-n2c(SCC(=O)Nc3ccc4c(c3)OCO4)nnc2-c2ccoc2C)c1 0.0629%
Cc1c(C(=O)OCC(=O)c2c(N)n(CC(C)C)c(=O)n(C)c2=O)oc2ccccc12 -27%
N#CC1C(=O)NC(N2CCN(c3ccccc3)CC2)=NC12CCCCC2 (centres undefined) 43.6%
CC(C)Oc1cccc(C(=O)C2CCCN(C(=O)CCn3cnnn3)C2)c1 (centres undefined) 30%
CCc1noc(C)c1C(=O)N1CCCC1 -16.5%
COc1ccccc1NC(=O)Nc1nn(C)c2cccc(N(C)C)c12 5.61%
Cc1ccc(S(=O)(=O)NC(C)(C)CN2CCCCC2)cc1 4.71%
COc1ccc(CN2CCC(C(=O)NCCc3ccc(OC)c(OC)c3)CC2)c(OC)c1 -56.8%
CC(=O)C1=C(NC(=O)c2ccc(C(F)(F)F)cc2)C[C@@H]2[C@H]1C2(C)C 4.08%
Cc1ccc(NC(=O)COc2nsnc2N2CCOCC2)cc1Cl -24.1%
COCCN(C(=O)c1cc2c(s1)CCC2)c1c(N)n(CC(C)C)c(=O)[nH]c1=O 9.9%
Cc1cc(=O)oc2c(C(=O)/C=C\c3cccs3)c(O)ccc12 -57.8%
COc1ccc(CNC(=O)COC(=O)[C@H](Cc2c[nH]c3ccccc23)NC(=O)c2cccs2)cc1 24.5%

Of the compounds above, these contain a halogen.
Lipid storage change, negative = inhibition, inconclusive:
O=C(Nc1ccc(F)c([N+](=O)[O-])c1)C1CC(=O)N(Cc2ccccc2)C1 (centres undefined) -18.9%
O=C(CNC(=O)C1CC(=O)N(c2cccc3ccccc23)C1)Nc1ccccc1Br (centres undefined) -13.6%
O=C(NCCO)C(F)(F)C(F)(F)C(F)(F)OC(F)(C(=O)NCCO)C(F)(F)F (centres undefined) 40.6%
COC(=O)C(NC(C)=O)(Nc1nc2c(s1)CCCC2)C(F)(F)F (centres undefined) -101%
Clc1cccc(-c2ccnc3nc(-n4cccc4)nn23)c1 13.1%
CC(=O)C1=C(NC(=O)c2ccc(C(F)(F)F)cc2)C[C@@H]2[C@H]1C2(C)C 4.08%
Cc1ccc(NC(=O)COc2nsnc2N2CCOCC2)cc1Cl -24.1%

Not a retest: an excerpt of the list.
Lipid storage change, negative = inhibition, inconclusive:
COc1ccccc1NC(=O)Nc1nn(C)c2cccc(N(C)C)c12 5.61%
Cc1ccc(S(=O)(=O)NC(C)(C)CN2CCCCC2)cc1 4.71%

Following part:

Lipid storage change, negative = inhibition, inactive:
CCCCNC(=S)N/N=C/c1sccc1C
Cc1ccc(C(=O)NNC(=O)c2ccc(S(=O)(=O)N3CCOCC3)cc2)cc1

Potency, active:
COc1ccccc1N(CC(=O)Nc1ccccc1C(=O)N1CCCC1)S(C)(=O)=O 18.4 µM

Potency, inconclusive:
COc1cccc(C(=O)COc2ccc(NC(=O)c3ccccc3)cc2)c1 4.61 µM [falling, single point]
CCN1CCN(C(=O)CN2C(=O)COc3ccc(C)cc32)CC1 4.11 µM [falling, single point]
Cc1ccc(C(CCN)c2ccco2)cc1 (centres undefined) 0.0291 µM [falling, full curve, poor fit]
O=C(CSc1nccn1-c1cccc(Cl)c1)NC1CCCC1 25.9 µM [activator, single point]
COc1ccccc1C(=O)NC(=O)COC(=O)c1ncc(Cl)c(Cl)c1Cl 29.1 µM [falling, single point]
CC(C)N(C(=O)COC(=O)c1ccc(Cl)nc1)C(C)C 2.06 µM [falling, full curve]
Cc1cccc2cc(C#N)c(SCc3nnc(-c4ccccc4[N+](=O)[O-])o3)nc12 0.366 µM [activator, partial curve, poor fit]
COC(=O)c1cc(CN2CCN(c3ccccc3)CC2)ccc1O 0.326 µM [activator, partial curve, poor fit]
C/C(CC(=O)Nc1ccc(N(C)C)cc1)=N\NC(=O)c1ccc(Cl)cc1Cl 0.58 µM [falling, single point]
COc1ccc(CC(=O)OCC(=O)NC2CCCCC2)cc1 0.517 µM [activator, partial curve, poor fit]
Cc1cc(=O)oc2cc(NC(=O)COc3cccc(C(F)(F)F)c3)ccc12 29.1 µM [falling, single point]
O=C(C1COc2ccccc2O1)N1CCN(c2ccccc2F)CC1 (centres undefined) 20.6 µM [activator, partial curve]
COc1ccc(C(=O)NC2CCN(C(=O)Nc3ccccc3Cl)CC2)cc1 25.9 µM [falling, partial curve, poor fit]
COc1ccc(C(=O)Nc2nccs2)cc1[N+](=O)[O-] 18.4 µM [activator, single point]
CCCn1c(N)c(N(CCOC)C(=O)CSc2cc(C)c3cccc(C)c3n2)c(=O)[nH]c1=O 2.31 µM [activator, partial curve]
COCCn1c(=NC(=O)C2COc3ccccc3O2)sc2cc(S(N)(=O)=O)ccc21 (centres undefined) 0.58 µM [activator, full curve]
